Experimental data reported in patent publication US10772893B2, “2-(morpholin-4-yl)-1,7-naphthyridines” (BAYER PHARMA AKTIENGESELLSCHAFT, priority 2014, dated 2020).

Tested on: Caco-2 cells
Test: Proliferation assay, crystal violet staining
Assay type: cell-based
Details: Homo sapiens, Caco-2, 96 h, read-out: Inhibition of Caco-2 cell proliferation

**Q.** How did the IC50 turn out when `C[C@@H]1COCCN1c1cc(-c2ccnn2C)c2ccnc(-c3ccn[nH]3)c2n1` [Example 111, 2-[(3R)-3-methylmorpholin-4-yl]-4-(1-methyl-1H-pyrazol-5-yl)-8-(1H-pyrazol-5-yl)-1,7-naphthyridine] was run?
**A.** 237 nM
